Earlier results, collected in US20210123061A1, “METHODS AND COMPOSITIONS FOR TREATING INFLAMMATORY DISEASE OR DISORDER” (THE BRIGHAM AND WOMEN'S HOSPITAL, INC., priority 2018, published 2021).
At least one structure is not confirmed: it was looked up by name or label, or the drawing left a doubt.

Test system: RSK1 (RPS6KA1) gene expression
Settings: Table 1; pert_type trt_cp = small molecule, trt_sh = shRNA; cited from earlier work

For `CN1C(=O)[C@@]23C[C@]4([C@]56C[C@@]78SS[C@@](CO)(C(=O)N7[C@H]5Nc5ccccc56)N(C)C8=O)c5ccccc5N[C@@H]4N2C(=O)[C@]1(CO)SS3` [chaetocin], the “RSK1 (agents that alter RSK1 expression)” value is listed as −0.93.
